PubChem BioAssay AID686937 – Drosophila RNAi Screening Center | 2013
Aim: 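Genes in the fly needed for secretion of protein constitutively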 (primary screen). Cell system: Drosophila S2 cells expressing secreted horseradish peroxidase. Reagent: long dsRNA against Drosophila genes. Timing: about 5.5 days (5 days dsRNA, then 12 h reporter induction). Conditions: reporter expression induced after 5 days of dsRNA, read 12 h later; inducer not stated. Detection: 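After 5 days of dsRNA and 12 h of reporter induction, medium peroxidase read by chemiluminescence and scored as per-plate z-score; higher values mean more reporter released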. Direction: z-score: higher = more reporter secreted into medium.
The screen tested about 23,000 reagents; below is an unselected part of those that have a named target and a result. 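Reduced-secretion tags in replicate 1 do not always agree with the z-scores; no criterion for assigning the tags was given.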 The numbers tell different reagents against one gene apart. A plus sign joins genes that one reagent is predicted to hit. Not all columns of the deposit are shown. Not given: the amount of reagent.

| gene | reagent no. | z-score, replicate 1 | z-score, replicate 2 | z-score, replicate 3 | z-score, replicate 4 |
| --- | --- | --- | --- | --- | --- |
| ru (roughoid) | 1 | 0.18 | 0.28 | – | – |
| CG30323 | 1 | 0.22 | 0.13 | – | – |
| Hmgcr (HMG Coenzyme A reductase) | 1 | -6.64 | -5 | – | – |
| CG2750 | 1 | 0.67 | 0.34 | 0.51 | 0.7 |
| Adgf-A2 (Adenosine deaminase-related growth factor A2) | 1 | 0.12 | 0.22 | – | – |
| eEF1gamma (eukaryotic translation elongation factor 1 gamma) | 1 | -2.19 | -2.3 | – | – |
| CG13728 | 1 | 0.11 | 0.37 | – | – |
| CG8736 | 1 | 0.15 | 0.31 | – | – |
| CG13228 | 1 | 0.03 | 0.35 | – | – |
| Tengl1 (Testis EndoG-Like 1) | 1 | 0.21 | 0.31 | – | – |
| jing | 1 | 0.22 | 0.19 | – | – |
| jing | 2 | 0.19 | – | – | – |
| jing | 3 | 0.33 | 0.41 | – | – |
| Arr1 (Arrestin 1) | 1 | 0.48 | 0.45 | – | – |
| CG2145 | 1 | 0.15 | 0.08 | – | – |
| CG17855 | 1 | -0.17 | 0.4 | – | – |
| Dlg5 (Discs large 5) | 1 | -0.45 | -0.07 | – | – |
| CG14691 | 1 | 0.21 | -0.55 | – | – |
| Phb1 (Prohibitin 1) | 1 | -0.08 | -0.14 | – | – |
| CG6656 | 1 | 0.36 | 0.22 | – | – |
| CG5098 | 1 | 0.29 | 0.35 | – | – |
| obst-I (obstructor-I) | 1 | 0.22 | 0.26 | – | – |
| RtcB (RtcB RNA ligase) | 1 | 0.24 | 0.36 | – | – |
| Mlc1 (Myosin alkali light chain 1) | 1 | 0.5 | 0.56 | – | – |
| CG3640 | 1 | 0.32 | 0.38 | – | – |
| dpr13 (defective proboscis extension response 13) | 1 | 0.09 | 0.27 | – | – |
| dpr13 (defective proboscis extension response 13) | 2 | 0.62 | 0.5 | – | – |
| CG14357 | 1 | 0.16 | -0.45 | – | – |
| CG7448 (retired record) | 1 | 0.15 | 0.26 | – | – |
| CG7448 (retired record) | 2 | 0.29 | -0.05 | – | – |
| Ranbp16 | 1 | 0.4 | 0.44 | – | – |
| CG7879 | 1 | 0.2 | 0.23 | – | – |
| Ddx56 (DEAD-box helicase 56) | 1 | -1.6 | 0.02 | – | – |
| brv2 (brivido-2) | 1 | -3.96 | -1.81 | – | – |
| CAH4 (Carbonic anhydrase 4) | 1 | 0.34 | 0.11 | – | – |
| CG7213 | 1 | 0.28 | 0.39 | – | – |
| CG9582 | 1 | 0.24 | 0.08 | – | – |
| Jhbp3 (Juvenile hormone binding protein 3) | 1 | -3.69 | -0.22 | – | – |
| lncRNA:noe (long non-coding RNA:noe) | 1 | 1.3 | 0.2 | – | – |
| CG12116 | 1 | 0.31 | 0.7 | – | – |
| Ttc19 (Tetratricopeptide repeat domain 19) | 1 | 0.23 | 0.28 | – | – |
| pcs (parcas) | 1 | 0.28 | 0.43 | – | – |
| TSG101 (Tumor susceptibility gene 101) | 1 | -1.15 | -0.8 | – | – |
| CG10809 | 1 | 0.53 | 0.5 | – | – |
| CG30393 | 1 | 0.42 | 0.51 | – | – |
| CG33341 | 1 | 0.1 | 0.02 | – | – |
| mbf1 (multiprotein bridging factor 1) | 1 | 0.3 | 0.32 | – | – |
| p130CAS | 1 | 0.94 | 0.4 | – | – |
| p130CAS | 2 | -3.82 | -2.41 | – | – |
| Atg16 (Autophagy-related 16) | 1 | -0.22 | 0.18 | – | – |
| Atg16 (Autophagy-related 16) | 2 | 0.25 | -0.05 | – | – |
| Atg16 (Autophagy-related 16) | 3 | -0.06 | -0.65 | – | – |
| twi (twist) | 1 | 0.41 | 0.09 | – | – |
| CG8569 | 1 | 0.2 | 0.4 | – | – |
| CG11307 | 1 | 0.39 | 0.37 | 0.1 | 0.32 |
| CG6431 | 1 | -0.08 | 0.27 | – | – |
| Sf3a1 (Splicing factor 3a subunit 1) | 1 | -5.01 | -2.1 | – | – |
| CG15278 | 1 | 0.57 | 0.56 | – | – |
| CG8112 | 1 | 0.34 | 0.18 | – | – |
| CG11619 | 1 | 0.52 | 0.74 | – | – |
| CG16894 | 1 | 0.29 | 0.29 | 0.35 | 0.3 |
| CG16894 | 2 | 1.17 | 0.47 | – | – |
| CG33191 + Pif1B | 1 | -0.12 | 0.43 | – | – |
| Six4 | 1 | 0.46 | 0.48 | – | – |
| CG14770 | 1 | 0.16 | 0.31 | – | – |
| BomS4 (Bomanin Short 4) | 1 | -0.55 | 0.12 | – | – |
| CG30487 | 1 | 0.27 | 0.45 | – | – |
| Blm + CG14721 | 1 | 0.29 | 0.49 | – | – |
| Snx16 (Sorting nexin 16) | 1 | 0.25 | 0.41 | – | – |
| SdhCL (Succinate dehydrogenase, subunit C-like) | 1 | 0.48 | 1.07 | – | – |
| CG15696 | 1 | 0.14 | 0.41 | – | – |
| Elp1 (Elongator complex protein 1) | 1 | -0.14 | -0.4 | – | – |
| CG31680 | 1 | 0.06 | 0.37 | – | – |
| Stip1 (Stress induced phosphoprotein 1) | 1 | 0.92 | 0.74 | – | – |
| CG4842 | 1 | 0.01 | -0.05 | – | – |
| SNCF (SoxNeuro Co-Factor) | 1 | -0.01 | 0 | – | – |
| CG42656 | 1 | -0.06 | 0.5 | – | – |
| kek1 (kekkon 1) | 1 | 0 | 0.08 | – | – |
| CG34171 | 1 | -0.07 | -0.01 | – | – |
| frtz (fritz) | 1 | 0.26 | 0.19 | – | – |
| Gk1 (Glycerol kinase 1) | 1 | -0.04 | 0.01 | – | – |
| Gk1 (Glycerol kinase 1) | 2 | -0.04 | 0.21 | – | – |

Taken from above.
CG16894 #2, z-score, replicate 2 = 0.47
Under “z-score, replicate 2”, CG6656 is entered as 0.22
For “z-score, replicate 1”, jing #2 is entered as 0.19
Entry for CG30393 under “z-score, replicate 2”: 0.51
CG7879, z-score, replicate 1 = 0.2
Result of CG42656 in “z-score, replicate 2”: 0.5
